Reference: the supplement of paper PMC10626197
Structures can show the parent of a compound that is named as a salt. Several reference drugs read as weak here; read low effects with care.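 Drug pairs were tested on MCF7 breast cancer cells in a dose grid. On every plate, solvent-only DMSO wells served as the untreated reference, and a doxorubicin series served as the total-kill control. No hit threshold applies to the viability readings.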

Test system: MCF7
Assay: cell viability relative to DMSO control (raw); higher = more viable cells
Details: exposure time 72 h
Experimental: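 MCF7 cells, 1000 cells/well in 384-well plates, treated with 6x6 dose matrices of drug pairs (1:3 serial dilutions, DMSO as lowest dose) for 72 h at 37 °C. Viability read by CellTiter-Glo luminescence, 3 biological replicates. Normalised viability sets 0% at the highest doxorubicin dose and 100% at the 0,0 µM control per combination.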

CN(Cc1cnc2nc(N)nc(N)c2n1)c1ccc(C(=O)N[C@@H](CCC(=O)O)C(=O)O)cc1 [Methotrexate] + Cc1ncc(NC(=O)c2ccc(CN3CCN(C)CC3)c(C(F)(F)F)c2)cc1Nc1nccc(-c2cccnc2)n1 [Flumatinib (mesylate)]
cell viability [%]
Details	drug 2 concentration 0 µM	drug 2 concentration 0.617284 µM	drug 2 concentration 1.85185 µM	drug 2 concentration 5.55556 µM	drug 2 concentration 16.6667 µM	drug 2 concentration 50 µM
drug 1 concentration 0.00617284 µM	100	90.5	94.7	91.1	87.9	0.493
drug 1 concentration 0.0185185 µM	80.2	88	85.9	79.76	52.3	0.27
drug 1 concentration 0.0555556 µM	83.5	69.7	63.1	63.1	0.946	0.17
drug 1 concentration 0.166667 µM	84.4	74.65	66.6	69.4	0.412	0.161
drug 1 concentration 0.5 µM	83.6	80.2	71.2	70.5	0.761	0.323

CN(Cc1cnc2nc(N)nc(N)c2n1)c1ccc(C(=O)N[C@@H](CCC(=O)O)C(=O)O)cc1 [Methotrexate] + Nc1ncn([C@@H]2O[C@H](CO)[C@@H](O)[C@H]2O)c(=O)n1 [5-Azacytidine]
cell viability [%]
Details	drug 2 concentration 0 µM	drug 2 concentration 0.123457 µM	drug 2 concentration 0.37037 µM	drug 2 concentration 1.11111 µM	drug 2 concentration 3.33333 µM	drug 2 concentration 10 µM
drug 1 concentration 0.00617284 µM	105	99.5	105	99.9	99.3	79.3
drug 1 concentration 0.0185185 µM	97	94.8	108	94.9	97.7	66.1
drug 1 concentration 0.0555556 µM	92.8	89.7	89.4	82.4	85.1	75.8
drug 1 concentration 0.166667 µM	81.8	86.1	88.7	91.8	84.6	62.6
drug 1 concentration 0.5 µM	112	118	118	126	99.6	72.5

O=C1c2c(O)ccc(O)c2C(=O)c2c(NCCNCCO)ccc(NCCNCCO)c21 [Mitoxantrone] + C=CC(=O)N1CCC(Oc2cc3c(Nc4ccc(Cl)c(Cl)c4F)ncnc3cc2OC)CC1 [Poziotinib]
cell viability [%]
Details	drug 2 concentration 0 µM	drug 2 concentration 0.246914 µM	drug 2 concentration 0.740741 µM	drug 2 concentration 2.22222 µM	drug 2 concentration 6.66667 µM	drug 2 concentration 20 µM
drug 1 concentration 0.0123457 µM	91	82.1	83.2	66.7	63.6	74.8
drug 1 concentration 0.037037 µM	96.4	94.4	93.4	79.6	69.8	78.4
drug 1 concentration 0.111111 µM	85.4	89.6	84.4	71.9	62.2	77
drug 1 concentration 0.333333 µM	74.6	74.9	74.4	67.2	61.8	64.1
drug 1 concentration 1 µM	63.6	51.7	52.6	46.9	60.8	54.8

O=C1c2c(O)ccc(O)c2C(=O)c2c(NCCNCCO)ccc(NCCNCCO)c21 [Mitoxantrone] + CCCNC(=O)c1cn2ncnc(Nc3cc(C(=O)NC4CC4)ccc3C)c2c1C [BMS-582949 (hydrochloride)]
cell viability [%]
Details	drug 2 concentration 0 µM	drug 2 concentration 0.37037 µM	drug 2 concentration 1.11111 µM	drug 2 concentration 3.33333 µM	drug 2 concentration 10 µM	drug 2 concentration 30 µM
drug 1 concentration 0.0123457 µM	92.1	93.2	92.3	93.4	80.4	70.3
drug 1 concentration 0.037037 µM	94.7	89.3	89.1	88	82.2	72.3
drug 1 concentration 0.111111 µM	84.9	83.4	85.1	86.1	75.5	73.4
drug 1 concentration 0.333333 µM	78.1	77.5	75.5	72.4	68.2	56.1
drug 1 concentration 1 µM	69.7	71.5	71	75.4	71.6	83.2

O=C1c2c(O)ccc(O)c2C(=O)c2c(NCCNCCO)ccc(NCCNCCO)c21 [Mitoxantrone] + CN1CCN(CCCN2c3ccccc3Sc3ccc(C(F)(F)F)cc32)CC1 [Trifluoperazine 2HCl]
cell viability [%]
Details	drug 2 concentration 0 µM	drug 2 concentration 0.185185 µM	drug 2 concentration 0.555556 µM	drug 2 concentration 1.66667 µM	drug 2 concentration 5 µM	drug 2 concentration 15 µM
drug 1 concentration 0.0123457 µM	76.5	73	75.9	76.9	62.9	6.95
drug 1 concentration 0.037037 µM	69.8	70.3	69	66.5	64.1	11.8
drug 1 concentration 0.111111 µM	64.7	65.8	65.6	58.4	61.8	7.62
drug 1 concentration 0.333333 µM	51.4	53.2	55.5	46.4	37.1	1.96
drug 1 concentration 1 µM	40.3	37.2	34.9	34.7	28.9	2.7

O=C1c2c(O)ccc(O)c2C(=O)c2c(NCCNCCO)ccc(NCCNCCO)c21 [Mitoxantrone] + CN(C)CCOc1ccc(/C(=C(/CCCl)c2ccccc2)c2ccccc2)cc1 [Toremifene (citrate)]
cell viability [%]
Details	drug 2 concentration 0 µM	drug 2 concentration 0.432099 µM	drug 2 concentration 1.2963 µM	drug 2 concentration 3.88889 µM	drug 2 concentration 11.6667 µM	drug 2 concentration 35 µM
drug 1 concentration 0.0123457 µM	77.3	79.7	76.6	70.6	25.4	0.301
drug 1 concentration 0.037037 µM	65.8	68.7	73.3	60.6	32	0.529
drug 1 concentration 0.111111 µM	67.6	62.9	66.6	56	42.3	0.316
drug 1 concentration 0.333333 µM	49.1	50.9	50.7	46.4	15.4	0.328
drug 1 concentration 1 µM	40.6	36.3	35.6	35.4	11.9	0.31

O=C1c2c(O)ccc(O)c2C(=O)c2c(NCCNCCO)ccc(NCCNCCO)c21 [Mitoxantrone] + COc1cc(Nc2ncc3c(n2)-c2ccc(Cl)cc2C(c2c(F)cccc2OC)=NC3)ccc1C(=O)O [Alisertib]
cell viability [%]
Details	drug 2 concentration 0 µM	drug 2 concentration 0.0617284 µM	drug 2 concentration 0.185185 µM	drug 2 concentration 0.555556 µM	drug 2 concentration 1.66667 µM	drug 2 concentration 5 µM
drug 1 concentration 0.0123457 µM	74.7	77.4	74.2	76.9	76	71.5
drug 1 concentration 0.037037 µM	74	77.5	75.8	73.5	74	70.8
drug 1 concentration 0.111111 µM	67.9	69.2	70.4	72.9	66.8	72.8
drug 1 concentration 0.333333 µM	60.2	59.8	62.9	57.9	64.6	67.7
drug 1 concentration 1 µM	36.8	38.6	37	41.8	39.1	40.7

O=C1c2c(O)ccc(O)c2C(=O)c2c(NCCNCCO)ccc(NCCNCCO)c21 [Mitoxantrone] + C[C@]12C=CC(=O)N[C@@H]1CC[C@@H]1[C@@H]2CC[C@]2(C)[C@@H](C(=O)Nc3cc(C(F)(F)F)ccc3C(F)(F)F)CC[C@@H]12 [Dutasteride]
cell viability [%]
Details	drug 2 concentration 0 µM	drug 2 concentration 0.617284 µM	drug 2 concentration 1.85185 µM	drug 2 concentration 5.55556 µM	drug 2 concentration 16.6667 µM	drug 2 concentration 50 µM
drug 1 concentration 0.0123457 µM	95.5	95.9	101	90.8	70.7	43.6
drug 1 concentration 0.037037 µM	89.6	95.5	95.4	94.3	80	45
drug 1 concentration 0.111111 µM	90.4	88.4	95.5	77.7	61.9	38.7
drug 1 concentration 0.333333 µM	79.6	83.1	79	68.5	55.2	24.4
drug 1 concentration 1 µM	65.9	65.4	63	57.9	44	23.1

O=C1c2c(O)ccc(O)c2C(=O)c2c(NCCNCCO)ccc(NCCNCCO)c21 [Mitoxantrone] + Cc1c(-c2ccc(O)cc2)n(Cc2ccc(OCCN3CCCCCC3)cc2)c2ccc(O)cc12 [Bazedoxifene (acetate)]
cell viability [%]
Details	drug 2 concentration 0 µM	drug 2 concentration 0.123457 µM	drug 2 concentration 0.37037 µM	drug 2 concentration 1.11111 µM	drug 2 concentration 3.33333 µM	drug 2 concentration 10 µM
drug 1 concentration 0.0123457 µM	69.4	68.9	66.1	66.4	65.4	3.16
drug 1 concentration 0.037037 µM	62.4	59.6	62	62.4	54	4.27
drug 1 concentration 0.111111 µM	66.7	57.2	60.2	65.4	57.3	4.09
drug 1 concentration 0.333333 µM	50.1	45.2	48.6	53.6	25.4	2.16
drug 1 concentration 1 µM	39.2	37.2	35.9	34.5	33.6	2.04

O=C1c2c(O)ccc(O)c2C(=O)c2c(NCCNCCO)ccc(NCCNCCO)c21 [Mitoxantrone] + Cc1ncc(NC(=O)c2ccc(CN3CCN(C)CC3)c(C(F)(F)F)c2)cc1Nc1nccc(-c2cccnc2)n1 [Flumatinib (mesylate)]
cell viability [%]
Details	drug 2 concentration 0 µM	drug 2 concentration 0.617284 µM	drug 2 concentration 1.85185 µM	drug 2 concentration 5.55556 µM	drug 2 concentration 16.6667 µM	drug 2 concentration 50 µM
drug 1 concentration 0.0123457 µM	99.3	93	94.6	90.9	22.6	0.642
drug 1 concentration 0.037037 µM	97.6	93	91.8	89.9	83.3	0.687
drug 1 concentration 0.111111 µM	87.3	79.1	83.3	85.7	66.79	2.66
drug 1 concentration 0.333333 µM	78.6	71.1	71.2	72.6	0.834	1.93
drug 1 concentration 1 µM	72.2	64	50.5	17	0.624	1.27

O=C1c2c(O)ccc(O)c2C(=O)c2c(NCCNCCO)ccc(NCCNCCO)c21 [Mitoxantrone] + Clc1cccc(Cl)c1NC1=NCCN1 [Clonidine]
cell viability [%]
Details	drug 2 concentration 0 µM	drug 2 concentration 0.0123457 µM	drug 2 concentration 0.037037 µM	drug 2 concentration 0.111111 µM	drug 2 concentration 0.333333 µM	drug 2 concentration 1 µM
drug 1 concentration 0.0123457 µM	95.9	101	103	103	102	98.3
drug 1 concentration 0.037037 µM	93.7	91.2	95.6	95.6	100	94.7
drug 1 concentration 0.111111 µM	84.9	90.4	90.6	92	96.4	97.7
drug 1 concentration 0.333333 µM	78	77.5	77.3	82.4	74.2	72.7
drug 1 concentration 1 µM	72	70.5	69	70.47	70.2	74.3

O=C1c2c(O)ccc(O)c2C(=O)c2c(NCCNCCO)ccc(NCCNCCO)c21 [Mitoxantrone] + Cn1cc(-c2ccc3nnc(C(F)(F)c4ccc5ncccc5c4)n3n2)cn1 [JNJ-38877605]
cell viability [%]
Details	drug 2 concentration 0 µM	drug 2 concentration 0.0617284 µM	drug 2 concentration 0.185185 µM	drug 2 concentration 0.555556 µM	drug 2 concentration 1.66667 µM	drug 2 concentration 5 µM
drug 1 concentration 0.0123457 µM	75.5	78.8	71.1	74.6	76	75.53
drug 1 concentration 0.037037 µM	74.1	74.7	73.5	78.1	74.1	74.7
drug 1 concentration 0.111111 µM	71.3	68.3	71.7	69.9	71.5	66.4
drug 1 concentration 0.333333 µM	57.1	59.2	58.6	63.7	68.1	61.5
drug 1 concentration 1 µM	36.4	37	38.8	35.6	35.9	40.5
